The values below come from the supplement of paper PMC11006884.

The chains behind the UniProt entries cited, without tags or fusion partners. Where a name states a change or a piece, a line headed by the entry shows the natural chain unless it says otherwise.
UniProt Q9BYW2: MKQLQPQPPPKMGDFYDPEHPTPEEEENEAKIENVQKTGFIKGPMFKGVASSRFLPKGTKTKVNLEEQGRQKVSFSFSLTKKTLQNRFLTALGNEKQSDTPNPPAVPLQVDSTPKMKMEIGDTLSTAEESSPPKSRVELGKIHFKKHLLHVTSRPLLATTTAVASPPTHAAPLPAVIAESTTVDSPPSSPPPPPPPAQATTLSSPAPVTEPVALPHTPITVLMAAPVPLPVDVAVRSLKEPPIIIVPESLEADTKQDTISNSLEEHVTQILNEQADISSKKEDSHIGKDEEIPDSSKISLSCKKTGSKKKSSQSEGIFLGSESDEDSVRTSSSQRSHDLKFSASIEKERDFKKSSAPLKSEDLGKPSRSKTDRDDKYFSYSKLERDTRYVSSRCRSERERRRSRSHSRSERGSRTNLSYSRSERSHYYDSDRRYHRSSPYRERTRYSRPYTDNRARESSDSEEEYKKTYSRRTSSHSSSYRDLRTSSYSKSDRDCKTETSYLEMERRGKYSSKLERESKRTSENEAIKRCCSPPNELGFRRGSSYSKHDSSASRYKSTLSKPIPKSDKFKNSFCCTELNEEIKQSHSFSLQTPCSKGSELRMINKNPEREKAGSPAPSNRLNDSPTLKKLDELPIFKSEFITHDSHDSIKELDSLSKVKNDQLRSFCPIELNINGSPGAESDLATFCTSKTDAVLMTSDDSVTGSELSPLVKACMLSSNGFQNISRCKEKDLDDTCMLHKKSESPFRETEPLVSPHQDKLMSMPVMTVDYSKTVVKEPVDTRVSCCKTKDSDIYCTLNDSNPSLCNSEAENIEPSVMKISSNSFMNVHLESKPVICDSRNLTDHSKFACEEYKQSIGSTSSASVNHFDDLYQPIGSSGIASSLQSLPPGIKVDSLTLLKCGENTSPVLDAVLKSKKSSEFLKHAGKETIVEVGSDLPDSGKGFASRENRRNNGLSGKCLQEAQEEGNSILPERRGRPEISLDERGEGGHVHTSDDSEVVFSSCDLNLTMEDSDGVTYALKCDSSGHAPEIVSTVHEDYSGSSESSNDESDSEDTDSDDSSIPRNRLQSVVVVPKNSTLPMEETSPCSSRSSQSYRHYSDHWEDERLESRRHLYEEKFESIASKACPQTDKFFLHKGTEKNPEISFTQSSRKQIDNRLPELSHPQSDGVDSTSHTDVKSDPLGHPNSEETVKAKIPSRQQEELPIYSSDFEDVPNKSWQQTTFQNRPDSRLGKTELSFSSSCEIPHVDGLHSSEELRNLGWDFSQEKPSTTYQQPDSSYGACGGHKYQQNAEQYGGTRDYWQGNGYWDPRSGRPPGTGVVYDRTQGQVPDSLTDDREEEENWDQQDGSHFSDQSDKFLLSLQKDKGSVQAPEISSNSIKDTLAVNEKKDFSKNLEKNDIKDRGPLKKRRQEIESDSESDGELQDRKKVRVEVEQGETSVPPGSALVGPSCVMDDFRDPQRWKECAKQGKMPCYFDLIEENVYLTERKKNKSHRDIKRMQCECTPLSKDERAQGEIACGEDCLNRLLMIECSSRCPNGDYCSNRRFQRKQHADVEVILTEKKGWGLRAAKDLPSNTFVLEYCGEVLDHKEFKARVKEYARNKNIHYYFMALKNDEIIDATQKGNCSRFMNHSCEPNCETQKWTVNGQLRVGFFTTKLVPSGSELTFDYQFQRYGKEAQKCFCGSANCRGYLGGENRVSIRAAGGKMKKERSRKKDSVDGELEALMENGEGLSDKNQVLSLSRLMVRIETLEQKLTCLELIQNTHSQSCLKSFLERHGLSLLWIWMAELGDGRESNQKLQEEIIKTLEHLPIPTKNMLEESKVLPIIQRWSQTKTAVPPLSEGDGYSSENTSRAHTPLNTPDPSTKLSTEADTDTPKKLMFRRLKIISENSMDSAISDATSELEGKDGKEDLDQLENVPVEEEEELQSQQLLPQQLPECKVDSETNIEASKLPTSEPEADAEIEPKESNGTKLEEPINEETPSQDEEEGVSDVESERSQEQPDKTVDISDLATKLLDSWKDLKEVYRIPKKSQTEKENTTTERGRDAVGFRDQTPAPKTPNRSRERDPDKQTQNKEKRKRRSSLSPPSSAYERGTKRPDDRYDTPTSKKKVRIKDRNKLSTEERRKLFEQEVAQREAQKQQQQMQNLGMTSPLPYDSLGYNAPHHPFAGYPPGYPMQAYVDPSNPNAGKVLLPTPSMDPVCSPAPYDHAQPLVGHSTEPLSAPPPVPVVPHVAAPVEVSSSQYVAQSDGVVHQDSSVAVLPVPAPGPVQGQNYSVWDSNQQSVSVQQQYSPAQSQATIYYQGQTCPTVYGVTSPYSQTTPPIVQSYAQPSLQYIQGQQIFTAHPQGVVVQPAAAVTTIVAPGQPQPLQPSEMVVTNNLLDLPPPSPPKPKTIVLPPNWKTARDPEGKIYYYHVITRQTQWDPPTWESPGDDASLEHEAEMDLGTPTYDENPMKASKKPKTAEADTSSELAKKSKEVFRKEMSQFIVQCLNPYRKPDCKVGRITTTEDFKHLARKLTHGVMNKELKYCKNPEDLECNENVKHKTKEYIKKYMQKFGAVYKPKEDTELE
UniProt Q9BRP1: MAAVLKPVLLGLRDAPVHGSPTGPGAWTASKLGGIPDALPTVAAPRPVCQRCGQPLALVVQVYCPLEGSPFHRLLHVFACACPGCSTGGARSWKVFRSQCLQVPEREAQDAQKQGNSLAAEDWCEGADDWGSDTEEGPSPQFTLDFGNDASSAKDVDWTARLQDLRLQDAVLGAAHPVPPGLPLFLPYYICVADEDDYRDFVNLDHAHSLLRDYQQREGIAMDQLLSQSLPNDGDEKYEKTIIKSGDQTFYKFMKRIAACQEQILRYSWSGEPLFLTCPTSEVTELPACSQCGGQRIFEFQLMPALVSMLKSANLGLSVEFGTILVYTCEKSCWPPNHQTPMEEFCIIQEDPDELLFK
UniProt Q9BW83: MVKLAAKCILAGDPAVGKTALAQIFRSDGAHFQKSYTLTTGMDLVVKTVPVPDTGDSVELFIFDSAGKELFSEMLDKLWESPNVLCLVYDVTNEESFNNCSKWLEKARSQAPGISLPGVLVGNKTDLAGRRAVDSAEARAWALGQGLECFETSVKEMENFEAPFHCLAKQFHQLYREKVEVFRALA
UniProt Q9BW19: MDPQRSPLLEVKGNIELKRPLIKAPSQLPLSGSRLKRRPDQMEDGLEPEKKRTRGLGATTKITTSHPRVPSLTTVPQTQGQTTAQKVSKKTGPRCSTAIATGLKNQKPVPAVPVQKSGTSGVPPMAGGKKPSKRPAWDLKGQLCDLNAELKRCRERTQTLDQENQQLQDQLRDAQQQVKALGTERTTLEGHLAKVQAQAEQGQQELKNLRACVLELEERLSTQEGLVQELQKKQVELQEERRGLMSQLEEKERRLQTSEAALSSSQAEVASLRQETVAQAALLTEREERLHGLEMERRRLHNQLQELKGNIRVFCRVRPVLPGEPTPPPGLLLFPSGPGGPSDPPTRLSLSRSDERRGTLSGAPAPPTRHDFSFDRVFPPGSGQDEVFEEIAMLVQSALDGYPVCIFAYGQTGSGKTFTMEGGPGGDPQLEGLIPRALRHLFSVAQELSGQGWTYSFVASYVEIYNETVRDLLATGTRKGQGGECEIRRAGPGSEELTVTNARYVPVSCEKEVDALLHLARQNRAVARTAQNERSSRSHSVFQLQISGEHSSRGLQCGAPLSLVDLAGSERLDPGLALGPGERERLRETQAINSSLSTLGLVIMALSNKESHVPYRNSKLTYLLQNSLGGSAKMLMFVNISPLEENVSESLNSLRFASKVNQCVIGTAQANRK
UniProt Q9BTW9: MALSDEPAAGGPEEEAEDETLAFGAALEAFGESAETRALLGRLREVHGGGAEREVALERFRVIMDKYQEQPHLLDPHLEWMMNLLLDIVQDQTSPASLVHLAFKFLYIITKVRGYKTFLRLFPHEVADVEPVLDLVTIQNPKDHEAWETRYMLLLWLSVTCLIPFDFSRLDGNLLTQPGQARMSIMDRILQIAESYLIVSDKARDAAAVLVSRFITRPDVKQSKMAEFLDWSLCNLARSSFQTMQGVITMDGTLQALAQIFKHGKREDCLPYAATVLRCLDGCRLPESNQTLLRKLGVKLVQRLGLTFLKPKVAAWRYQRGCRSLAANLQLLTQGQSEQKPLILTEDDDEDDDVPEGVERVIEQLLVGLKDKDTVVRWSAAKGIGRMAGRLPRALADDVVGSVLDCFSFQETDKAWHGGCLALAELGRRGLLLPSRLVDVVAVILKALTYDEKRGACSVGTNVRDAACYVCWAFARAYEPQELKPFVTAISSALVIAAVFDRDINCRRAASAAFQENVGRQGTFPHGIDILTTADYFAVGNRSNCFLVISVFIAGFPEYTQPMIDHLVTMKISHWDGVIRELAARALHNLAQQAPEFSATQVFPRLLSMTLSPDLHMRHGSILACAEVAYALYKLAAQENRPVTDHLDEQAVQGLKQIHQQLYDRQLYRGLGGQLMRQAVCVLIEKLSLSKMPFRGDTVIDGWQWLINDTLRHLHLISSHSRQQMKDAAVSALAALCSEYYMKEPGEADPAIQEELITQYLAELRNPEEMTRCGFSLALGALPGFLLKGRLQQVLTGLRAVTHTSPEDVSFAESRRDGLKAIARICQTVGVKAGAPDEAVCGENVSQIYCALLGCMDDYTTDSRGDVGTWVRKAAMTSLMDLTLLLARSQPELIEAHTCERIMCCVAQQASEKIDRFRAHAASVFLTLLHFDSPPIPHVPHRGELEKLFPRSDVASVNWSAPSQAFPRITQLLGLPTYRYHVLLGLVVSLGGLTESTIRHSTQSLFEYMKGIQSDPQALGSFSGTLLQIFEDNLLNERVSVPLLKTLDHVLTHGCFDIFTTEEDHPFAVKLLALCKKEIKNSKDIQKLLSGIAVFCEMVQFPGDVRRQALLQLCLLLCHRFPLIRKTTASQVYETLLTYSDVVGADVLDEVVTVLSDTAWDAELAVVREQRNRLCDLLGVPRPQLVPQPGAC
UniProt Q9BRJ6: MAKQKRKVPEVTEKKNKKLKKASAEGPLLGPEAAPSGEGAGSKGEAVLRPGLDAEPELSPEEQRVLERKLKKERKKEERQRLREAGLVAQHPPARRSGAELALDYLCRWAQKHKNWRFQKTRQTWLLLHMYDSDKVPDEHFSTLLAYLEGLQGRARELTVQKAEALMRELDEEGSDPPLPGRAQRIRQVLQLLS
UniProt Q9H2U1: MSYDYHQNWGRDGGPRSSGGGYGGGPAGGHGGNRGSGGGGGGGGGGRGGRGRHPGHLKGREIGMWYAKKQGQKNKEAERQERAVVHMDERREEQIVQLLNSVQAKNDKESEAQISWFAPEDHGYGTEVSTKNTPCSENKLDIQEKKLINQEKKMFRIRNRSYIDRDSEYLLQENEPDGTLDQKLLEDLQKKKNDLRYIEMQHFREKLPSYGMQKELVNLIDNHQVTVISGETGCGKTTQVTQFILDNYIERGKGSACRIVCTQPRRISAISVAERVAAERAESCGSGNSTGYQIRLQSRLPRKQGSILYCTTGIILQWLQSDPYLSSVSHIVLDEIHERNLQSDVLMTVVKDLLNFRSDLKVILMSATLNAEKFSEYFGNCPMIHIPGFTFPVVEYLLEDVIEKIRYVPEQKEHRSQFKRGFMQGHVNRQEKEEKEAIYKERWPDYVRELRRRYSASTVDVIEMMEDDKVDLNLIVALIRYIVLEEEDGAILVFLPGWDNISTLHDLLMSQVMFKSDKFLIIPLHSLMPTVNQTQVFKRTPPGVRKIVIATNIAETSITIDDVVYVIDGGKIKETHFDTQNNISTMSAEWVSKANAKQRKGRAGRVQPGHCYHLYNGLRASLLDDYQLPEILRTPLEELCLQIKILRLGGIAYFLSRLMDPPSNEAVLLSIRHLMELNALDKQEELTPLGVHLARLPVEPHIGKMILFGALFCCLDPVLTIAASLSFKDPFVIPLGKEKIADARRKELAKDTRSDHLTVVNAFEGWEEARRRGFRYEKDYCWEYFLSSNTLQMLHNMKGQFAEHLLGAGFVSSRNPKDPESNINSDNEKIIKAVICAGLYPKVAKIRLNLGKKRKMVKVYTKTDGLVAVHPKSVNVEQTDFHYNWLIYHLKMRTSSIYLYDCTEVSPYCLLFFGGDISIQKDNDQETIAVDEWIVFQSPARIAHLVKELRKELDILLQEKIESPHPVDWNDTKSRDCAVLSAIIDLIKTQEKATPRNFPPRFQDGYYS
UniProt Q9C0F1: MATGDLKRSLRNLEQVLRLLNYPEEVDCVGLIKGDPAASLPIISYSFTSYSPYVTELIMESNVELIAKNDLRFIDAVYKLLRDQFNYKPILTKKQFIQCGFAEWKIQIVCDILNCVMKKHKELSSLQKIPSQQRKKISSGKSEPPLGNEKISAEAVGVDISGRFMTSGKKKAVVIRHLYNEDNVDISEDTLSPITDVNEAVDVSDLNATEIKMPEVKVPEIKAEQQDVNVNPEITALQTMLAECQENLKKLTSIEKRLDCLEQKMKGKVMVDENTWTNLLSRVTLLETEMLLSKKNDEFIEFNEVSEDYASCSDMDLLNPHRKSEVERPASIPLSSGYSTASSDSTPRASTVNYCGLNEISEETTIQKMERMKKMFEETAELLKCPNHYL

This list holds what a sample rich in targets with a hit left over. The data scatter; read single values as rough. The entries are a selection whose mix differs from that of the whole data set.

Compound in this test: COC(=O)/C=C/c1ccccc1 [methyl cinnamate]
The experiment in a line: log2 ratio of iodoacetamide-alkyne labeling of the cysteine site, DMSO over compound (competition); higher = stronger covalent engagement of the cysteine by the compound, active = 1 or more. The note with it: 500 µM; treatment time 1 h; system: HEK293T cell lysate. An outline of the steps:
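After 1 h at ambient temperature with vehicle or electrophile (500 µM), HEK293T lysate (2 mg/mL) was labelled for 1 h with iodoacetamide alkyne and clicked to sCIP-TMT reagents. Pooled samples were trypsin-digested overnight at 37 °C, streptavidin-enriched, acid-eluted and analysed by Orbitrap Eclipse LC-MS/MS with FAIMS, then quantified in FragPipe over three replicates with duplicate channels. A cysteine's log2 competition ratio is its mean control-channel over mean compound-channel reporter intensity. Cysteines quantified in only one replicate were not included.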
As for RPAP1 C185 (UniProt Q9BWH6), the “log2 ratio of iodoacetamide-alkyne labeling” value (shortened to “log2 ratio”) was inactive: 0.296. Regarding SETD2 C714 (UniProt Q9BYW2), the “log2 ratio” value is inactive: 0.202. As to PDCD2L C278 (UniProt Q9BRP1), the “log2 ratio” value is inactive: 0.245. In the case of PELO C204 (UniProt Q9BRX2), the “log2 ratio” value was inactive: 0.248.

In the case of UniProt Q9BW83_C166, the “log2 ratio” value is inactive: -0.039. As for SETD2 C958 (UniProt Q9BYW2), the figure is inactive: 0.271; as for RNF126 C15 (UniProt Q9BV68), inactive: 0.0875; as for GNB1L C109 (UniProt Q9BYB4), inactive: -0.163. With GNL3 C158 (UniProt Q9BVP2) the figure was inactive: 0.273; with KIFC1 C509 (UniProt Q9BW19), inactive: 0.295.

With TBCD C1175 (UniProt Q9BTW9), the “log2 ratio” value was inactive: 0.0822. As for HNRNPUL1 C421 (UniProt Q9BUJ2), the “log2 ratio” value was inactive: 0.15. As for ASPSCR1 C224 (UniProt Q9BZE9), the “log2 ratio” value was inactive: 0.321. With UniProt Q9BTX1_C468, the “log2 ratio” value is inactive: 0.214. Take XPO4 C492 (UniProt Q9C0E2): the “log2 ratio” value is inactive: -0.212. Consider TNKS1BP1 C1175 (UniProt Q9C0C2), for which the “log2 ratio” value was inactive: 0.323. Regarding C7orf50 C107 (UniProt Q9BRJ6), the “log2 ratio” value was inactive: -0.0202. As for PELO C218 (UniProt Q9BRX2), the “log2 ratio” value was inactive: 0.332. In the case of XRN2 C296 (UniProt Q9H0D6), the “log2 ratio” value is inactive: 0.14. With NOC4L C509 (UniProt Q9BVI4), the “log2 ratio” value is inactive: 0.176.

Take DHX36 C135 (UniProt Q9H2U1): the “log2 ratio” value was inactive: 0.388. For UniProt Q9C0F1_C355, the “log2 ratio” value is inactive: 0.0159. For FTO C171 (UniProt Q9C0B1), the “log2 ratio” value is inactive: 0.127. With ACAT2 C360 (UniProt Q9BWD1), the “log2 ratio” value is inactive: 0.131. For UniProt Q9BSJ8_C522, the “log2 ratio” value is inactive: 0.222.

With PI4K2A C320 (UniProt Q9BTU6), the “log2 ratio” value is inactive: 0.0313. As for NAT10 C658 (UniProt Q9H0A0), the “log2 ratio” value was inactive: 0.00927. In the case of SRSF8 C3 (UniProt Q9BRL6), the “log2 ratio” value is inactive: 0.295.

MRPL37 C188 (UniProt Q9BZE1): the “log2 ratio” value is inactive: 0.144. On to UniProt Q9BYG3_C237, for which the “log2 ratio” value is inactive: 0.454. With ILKAP C301 (UniProt Q9H0C8), the “log2 ratio” value was inactive: 0.0694. RNF126 C32 (UniProt Q9BV68): the “log2 ratio” value is inactive: -0.222. As for DDX24 C746 (UniProt Q9GZR7), the figure is inactive: 0.206.

In the case of G6PC3 C269 (UniProt Q9BUM1), the “log2 ratio” value was inactive: -0.048. In the case of TBCD C625 (UniProt Q9BTW9), the “log2 ratio” value was inactive: -0.0181. With LZTS2 C376 (UniProt Q9BRK4) the figure was inactive: 0.179. With UTP14A C522 (UniProt Q9BVJ6) the figure was inactive: 0.132; with TNKS1BP1 C136 (UniProt Q9C0C2), inactive: 0.386.
